# Values of other authors as cited in patent publication US20240285500A1, “HAIR GROWTH AGENT” (ADJUVANT HOLDINGS CO., LTD., priority 2021, published 2024).
# At least one compound was matched to its structure with a doubt left.
# System: vascular endothelial growth factor (VEGF) expression in dermal papilla cells
# Settings: cited from earlier work
smiles,measurement,value
Nc1cc(N2CCCCC2)nc(N)[n+]1[O-] [minoxidil],expression of vascular endothelial growth factor (VEGF),promotes expression of vascular endothelial growth factor (VEGF)
